In patent US5716622:
Results from cells or extracts need not show a direct contact. For some assays here: A negative result means that nothing was seen under these conditions. For some assays here: A weaker result is weaker than the reference pair of the same experiment. For some assays here: The exact form of at least one protein or probe is not confirmed.

Chains of the proteins cited; added tags and fusions are not shown. A line that says so, or that is headed by a name, gives the form on record, which may keep a tag or linker. Residues count along the entry.
UniProt P42224, 2-750: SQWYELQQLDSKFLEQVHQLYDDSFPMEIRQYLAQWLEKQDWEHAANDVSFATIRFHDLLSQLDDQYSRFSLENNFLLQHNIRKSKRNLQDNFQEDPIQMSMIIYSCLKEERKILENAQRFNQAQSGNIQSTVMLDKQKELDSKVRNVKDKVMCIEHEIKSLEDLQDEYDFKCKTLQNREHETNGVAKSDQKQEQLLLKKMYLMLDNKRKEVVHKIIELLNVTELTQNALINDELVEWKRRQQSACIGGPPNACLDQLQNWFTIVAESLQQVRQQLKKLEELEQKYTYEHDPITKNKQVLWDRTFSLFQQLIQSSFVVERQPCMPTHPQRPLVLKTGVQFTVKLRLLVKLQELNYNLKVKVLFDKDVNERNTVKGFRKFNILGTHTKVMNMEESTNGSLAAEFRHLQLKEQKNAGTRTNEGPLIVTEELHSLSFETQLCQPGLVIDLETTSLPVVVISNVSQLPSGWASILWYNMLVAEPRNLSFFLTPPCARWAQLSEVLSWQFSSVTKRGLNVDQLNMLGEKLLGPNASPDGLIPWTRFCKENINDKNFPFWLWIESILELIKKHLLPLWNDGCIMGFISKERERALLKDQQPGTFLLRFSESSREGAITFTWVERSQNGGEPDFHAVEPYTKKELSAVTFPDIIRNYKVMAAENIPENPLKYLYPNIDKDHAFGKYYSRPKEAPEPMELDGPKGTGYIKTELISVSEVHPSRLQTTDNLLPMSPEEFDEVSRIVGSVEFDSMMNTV
UniProt P42224, 2-750 S727A: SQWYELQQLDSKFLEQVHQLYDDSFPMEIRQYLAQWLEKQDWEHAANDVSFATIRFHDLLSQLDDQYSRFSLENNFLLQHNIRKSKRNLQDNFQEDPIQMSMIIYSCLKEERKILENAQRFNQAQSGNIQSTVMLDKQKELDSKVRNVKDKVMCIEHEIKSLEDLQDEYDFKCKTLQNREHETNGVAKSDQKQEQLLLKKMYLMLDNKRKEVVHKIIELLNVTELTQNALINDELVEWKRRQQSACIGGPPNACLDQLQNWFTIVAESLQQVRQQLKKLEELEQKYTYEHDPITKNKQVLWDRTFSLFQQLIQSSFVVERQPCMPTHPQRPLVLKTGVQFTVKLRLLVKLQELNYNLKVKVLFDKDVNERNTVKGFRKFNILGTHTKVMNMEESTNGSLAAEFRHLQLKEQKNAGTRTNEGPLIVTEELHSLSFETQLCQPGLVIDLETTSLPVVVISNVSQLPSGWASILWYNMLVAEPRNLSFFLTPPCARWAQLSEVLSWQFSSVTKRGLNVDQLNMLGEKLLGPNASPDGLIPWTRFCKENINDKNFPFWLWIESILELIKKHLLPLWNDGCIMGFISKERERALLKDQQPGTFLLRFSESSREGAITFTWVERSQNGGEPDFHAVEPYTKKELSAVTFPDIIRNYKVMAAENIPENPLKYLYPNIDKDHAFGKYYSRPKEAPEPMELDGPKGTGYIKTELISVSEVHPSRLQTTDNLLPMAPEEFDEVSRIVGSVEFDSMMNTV
UniProt P40763, 2-770: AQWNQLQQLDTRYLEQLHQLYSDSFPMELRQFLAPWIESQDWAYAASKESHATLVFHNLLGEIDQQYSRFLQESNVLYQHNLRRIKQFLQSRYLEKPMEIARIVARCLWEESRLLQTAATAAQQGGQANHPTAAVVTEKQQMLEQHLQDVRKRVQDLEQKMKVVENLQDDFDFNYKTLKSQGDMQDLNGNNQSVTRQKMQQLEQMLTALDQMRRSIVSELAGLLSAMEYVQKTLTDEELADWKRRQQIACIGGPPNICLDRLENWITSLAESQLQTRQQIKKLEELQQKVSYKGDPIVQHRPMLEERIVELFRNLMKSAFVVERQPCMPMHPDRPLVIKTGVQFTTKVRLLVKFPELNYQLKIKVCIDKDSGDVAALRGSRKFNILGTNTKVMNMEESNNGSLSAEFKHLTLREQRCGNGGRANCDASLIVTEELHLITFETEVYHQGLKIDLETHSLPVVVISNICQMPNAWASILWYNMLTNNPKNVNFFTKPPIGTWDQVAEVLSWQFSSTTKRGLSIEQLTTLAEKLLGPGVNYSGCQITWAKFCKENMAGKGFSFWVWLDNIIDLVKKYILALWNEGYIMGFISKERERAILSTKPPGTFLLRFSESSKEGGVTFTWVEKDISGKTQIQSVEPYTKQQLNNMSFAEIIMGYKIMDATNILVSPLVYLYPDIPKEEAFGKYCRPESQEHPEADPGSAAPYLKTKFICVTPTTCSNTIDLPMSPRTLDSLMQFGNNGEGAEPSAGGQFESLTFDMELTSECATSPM
UniProt P42227, other isoform, or with tags, fused parts or gaps: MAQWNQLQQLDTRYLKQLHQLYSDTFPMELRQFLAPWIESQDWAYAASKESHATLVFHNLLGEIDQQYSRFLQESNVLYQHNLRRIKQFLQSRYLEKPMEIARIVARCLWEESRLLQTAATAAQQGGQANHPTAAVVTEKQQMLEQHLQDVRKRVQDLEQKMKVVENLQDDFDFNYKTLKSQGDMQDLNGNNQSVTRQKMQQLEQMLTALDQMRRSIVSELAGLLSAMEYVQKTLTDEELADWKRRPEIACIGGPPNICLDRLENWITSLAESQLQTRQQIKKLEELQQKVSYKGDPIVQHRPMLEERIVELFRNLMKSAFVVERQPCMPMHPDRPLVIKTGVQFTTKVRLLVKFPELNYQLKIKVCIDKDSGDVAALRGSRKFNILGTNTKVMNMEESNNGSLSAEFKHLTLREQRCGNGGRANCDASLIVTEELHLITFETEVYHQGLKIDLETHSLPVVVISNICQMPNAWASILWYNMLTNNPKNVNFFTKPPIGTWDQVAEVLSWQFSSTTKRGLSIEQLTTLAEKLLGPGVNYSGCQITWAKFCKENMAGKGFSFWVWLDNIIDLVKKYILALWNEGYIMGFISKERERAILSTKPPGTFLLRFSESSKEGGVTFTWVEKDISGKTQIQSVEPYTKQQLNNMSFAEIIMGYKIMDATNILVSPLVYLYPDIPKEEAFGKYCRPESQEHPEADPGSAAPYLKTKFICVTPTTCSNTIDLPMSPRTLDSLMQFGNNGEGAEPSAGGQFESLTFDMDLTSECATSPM
UniProt P42227, other isoform, or with tags, fused parts or gaps E434A E435A: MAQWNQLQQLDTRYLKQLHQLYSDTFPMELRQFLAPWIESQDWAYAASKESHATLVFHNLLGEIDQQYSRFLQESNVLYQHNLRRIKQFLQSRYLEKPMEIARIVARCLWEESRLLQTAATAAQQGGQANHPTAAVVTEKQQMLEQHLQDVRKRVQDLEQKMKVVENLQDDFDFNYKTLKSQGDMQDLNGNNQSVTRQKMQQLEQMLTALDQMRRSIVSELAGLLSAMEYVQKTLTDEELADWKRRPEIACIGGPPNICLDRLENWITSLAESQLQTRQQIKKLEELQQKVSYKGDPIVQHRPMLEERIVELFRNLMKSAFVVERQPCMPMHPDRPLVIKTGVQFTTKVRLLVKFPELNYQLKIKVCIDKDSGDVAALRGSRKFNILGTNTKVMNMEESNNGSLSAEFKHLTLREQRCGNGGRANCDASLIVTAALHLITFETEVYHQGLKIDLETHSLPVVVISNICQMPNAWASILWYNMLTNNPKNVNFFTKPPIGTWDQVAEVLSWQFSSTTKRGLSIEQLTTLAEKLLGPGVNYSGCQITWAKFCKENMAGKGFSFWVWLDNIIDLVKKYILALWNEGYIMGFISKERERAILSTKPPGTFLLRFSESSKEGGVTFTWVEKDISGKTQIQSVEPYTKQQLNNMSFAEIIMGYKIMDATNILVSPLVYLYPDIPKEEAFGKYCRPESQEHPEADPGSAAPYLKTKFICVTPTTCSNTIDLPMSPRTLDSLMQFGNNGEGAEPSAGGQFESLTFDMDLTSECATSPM
UniProt P42227, other isoform, or with tags, fused parts or gaps V461A V462A V463A: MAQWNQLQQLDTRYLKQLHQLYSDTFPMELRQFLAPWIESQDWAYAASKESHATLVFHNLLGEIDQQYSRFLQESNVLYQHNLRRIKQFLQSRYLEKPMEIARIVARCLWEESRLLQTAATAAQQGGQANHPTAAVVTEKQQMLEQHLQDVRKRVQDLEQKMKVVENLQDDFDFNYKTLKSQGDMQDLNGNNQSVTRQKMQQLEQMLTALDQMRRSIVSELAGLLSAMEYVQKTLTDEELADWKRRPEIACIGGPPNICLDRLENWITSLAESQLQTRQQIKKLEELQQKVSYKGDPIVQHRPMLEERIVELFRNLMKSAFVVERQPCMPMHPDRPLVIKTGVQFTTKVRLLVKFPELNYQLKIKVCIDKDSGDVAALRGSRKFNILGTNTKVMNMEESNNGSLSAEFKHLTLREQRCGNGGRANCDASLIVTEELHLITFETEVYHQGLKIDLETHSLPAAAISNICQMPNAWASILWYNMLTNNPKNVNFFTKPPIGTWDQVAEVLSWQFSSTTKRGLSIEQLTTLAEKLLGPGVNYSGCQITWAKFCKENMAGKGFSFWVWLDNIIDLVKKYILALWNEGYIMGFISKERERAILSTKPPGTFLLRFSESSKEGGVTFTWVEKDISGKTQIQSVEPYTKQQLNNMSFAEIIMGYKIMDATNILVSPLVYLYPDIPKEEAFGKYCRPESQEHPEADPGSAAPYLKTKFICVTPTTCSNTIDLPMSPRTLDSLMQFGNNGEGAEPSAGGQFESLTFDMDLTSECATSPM
Stat1:Stat3 heterodimer (SIF B) (Homo sapiens), one chain, as listed by the source, chain 1 of 2: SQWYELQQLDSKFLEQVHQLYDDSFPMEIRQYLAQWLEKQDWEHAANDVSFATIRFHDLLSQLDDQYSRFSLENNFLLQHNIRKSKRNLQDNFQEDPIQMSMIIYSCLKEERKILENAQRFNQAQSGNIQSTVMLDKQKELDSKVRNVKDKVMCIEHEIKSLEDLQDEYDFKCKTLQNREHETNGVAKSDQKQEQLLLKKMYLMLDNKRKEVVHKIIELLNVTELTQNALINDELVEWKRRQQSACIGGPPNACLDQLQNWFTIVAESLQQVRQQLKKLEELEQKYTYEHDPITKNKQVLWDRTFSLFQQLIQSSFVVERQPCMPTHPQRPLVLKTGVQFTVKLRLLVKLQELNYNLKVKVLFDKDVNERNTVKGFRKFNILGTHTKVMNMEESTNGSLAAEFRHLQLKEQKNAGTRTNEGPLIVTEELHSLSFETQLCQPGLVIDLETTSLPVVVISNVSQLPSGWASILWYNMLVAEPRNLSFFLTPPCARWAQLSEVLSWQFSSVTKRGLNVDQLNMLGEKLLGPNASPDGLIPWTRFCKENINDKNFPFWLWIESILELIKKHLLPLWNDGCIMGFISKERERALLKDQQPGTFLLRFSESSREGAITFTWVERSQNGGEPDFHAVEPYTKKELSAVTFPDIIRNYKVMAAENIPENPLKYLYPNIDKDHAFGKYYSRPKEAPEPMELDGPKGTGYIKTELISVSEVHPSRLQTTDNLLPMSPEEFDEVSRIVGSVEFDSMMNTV
Stat1:Stat3 heterodimer (SIF B) (Homo sapiens), one chain, as listed by the source, chain 2 of 2: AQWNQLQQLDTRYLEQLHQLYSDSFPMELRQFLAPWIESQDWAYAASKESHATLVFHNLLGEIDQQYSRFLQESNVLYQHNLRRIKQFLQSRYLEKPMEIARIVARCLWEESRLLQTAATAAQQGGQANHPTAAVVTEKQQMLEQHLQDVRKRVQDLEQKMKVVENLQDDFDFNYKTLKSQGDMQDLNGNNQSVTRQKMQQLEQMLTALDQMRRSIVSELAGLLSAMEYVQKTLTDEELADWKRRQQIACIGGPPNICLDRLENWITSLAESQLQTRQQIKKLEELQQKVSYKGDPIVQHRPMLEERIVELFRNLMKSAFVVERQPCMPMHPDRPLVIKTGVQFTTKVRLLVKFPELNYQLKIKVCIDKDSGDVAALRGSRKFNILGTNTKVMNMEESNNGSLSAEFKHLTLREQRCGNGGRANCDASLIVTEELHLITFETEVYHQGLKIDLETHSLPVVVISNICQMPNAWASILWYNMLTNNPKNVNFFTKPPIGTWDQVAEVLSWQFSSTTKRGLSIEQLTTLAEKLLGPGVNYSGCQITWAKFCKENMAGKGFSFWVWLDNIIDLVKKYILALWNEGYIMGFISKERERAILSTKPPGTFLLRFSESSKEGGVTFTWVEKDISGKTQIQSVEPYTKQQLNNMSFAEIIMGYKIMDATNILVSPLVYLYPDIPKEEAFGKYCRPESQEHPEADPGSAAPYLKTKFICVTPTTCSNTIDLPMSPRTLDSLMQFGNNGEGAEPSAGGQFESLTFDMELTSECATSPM

Tests used:
[1] = test system: Stat1:Stat3 heterodimer (SIF B) (Homo sapiens); test: EMSA; conditions: protein in an extract, label: 32P
[2] = target: Stat1 homodimer (SIF C) (Homo sapiens) (UniProt P42224); test: EMSA; conditions: protein in an extract, label: 32P
[3] = target: Stat1alpha expressed in U3A cells (Homo sapiens) (UniProt P42224); test: EMSA; conditions: protein in an extract, label: 32P
[4] = target: Stat3 homodimer (SIF A) (Homo sapiens) (UniProt P40763); test: EMSA; conditions: protein in an extract, label: 32P
[5] = target: Stat1alpha S727A (Stat1alpha-s) (Homo sapiens) (UniProt P42224); test: EMSA; conditions: equal to wild type, protein in an extract, label: 32P
[6] = target: Stat3 expressed in U3A or COS-1 cells (UniProt P42227); test: EMSA; conditions: IFN-alpha treated U3A, protein in an extract, label: 32P
[7] = target: chimera 3-111-1 (Stat3 1-111 substituted into Stat1 + exact Stat1 junction residue not in text) (UniProt P42224); test: EMSA; conditions: interferon treated U3A, protein in an extract, protein details: FLAG, label: 32P
Stat3 EE>AA E434A,E435A = Stat3 EE>AA E434A,E435A (UniProt P42227); test: EMSA; conditions: nearly undetectable; phosphorylated and dimerizes normally; protein in an extract; label: 32P; variant of SIE (c-fos sis-inducible element)
[8] = target: chimera 1,3(297-406),1 (3' Stat1 junction residue not in text) (UniProt P42224); test: EMSA; conditions: Stat1 recognition intact, protein in an extract, protein details: FLAG, label: 32P
[9] = target: Stat3 VVV>AAA V461A,V462A,V463A (UniProt P42227); test: EMSA; conditions: distinctly reduced but detectable; protein in an extract; label: 32P; variant of SIE (c-fos sis-inducible element)
[10] = target: chimera 1,3(406-514),1 (5' Stat1 junction residue not in text) (UniProt P42224); test: EMSA; conditions: Stat3 recognition transferred, protein in an extract, protein details: FLAG, label: 32P
[11] = target: Stat3 homodimer (SIF A) (Homo sapiens) (UniProt P40763); test: competition with a labelled probe; conditions: HepG2 IL-6; estimated by competition, S3 better than S1; protein in an extract; label: 32P
[12] = not observed unless overexposed
[13] = very weak signal with STAT proteins
[14] = HepG2 IL-6, variant of SIE (c-fos sis-inducible element)
[15] = variant of SIE (c-fos sis-inducible element)

## ATATTCCTGTAAGTGAT (double strand) [Ly6E GAS]
[1]; bound poorly
  binding result: binds more weakly
[2]; 2-3 fold less binding than GRR
  binding result: binds
[3]; data not shown
  binding result: binds
[4]; [12]
  binding result: no binding
[5]; data not shown
  binding result: binds

## CAGTTCCCGTCAATCAT (double strand) [SIE (c-fos sis-inducible element)]
[1]; [13]
  binding result: binds more weakly
[2]; [13]
  binding result: binds more weakly
[4]; [13]
  binding result: binds more weakly

## CATTTCCCGTAAATCAT (double strand) [M67 SIE]
[1]; [14]
  binding result: binds
[2]; [14]
  binding result: binds
[6]; EGF-treated COS, variant of SIE (c-fos sis-inducible element)
  binding result: binds
[7]; [15]
  binding result: binds
[3]; IFN-gamma treated U3A, variant of SIE (c-fos sis-inducible element)
  binding result: binds
Stat3 EE>AA E434A,E435A
  binding result: binds more weakly
[8]; [15]
  binding result: binds
[4]; [14]
  binding result: binds
[9]
  binding result: binds more weakly
[10]; [15]
  binding result: binds
[5]; data not shown, variant of SIE (c-fos sis-inducible element)
  binding result: binds

## GTATTTCCCAGAAAAGG (double strand) [GRR (FcgammaR1)]
[1]; bound poorly
  binding result: binds more weakly
[2]; HepG2 IL-6
  binding result: binds
[6]; not or very poorly bound
  binding result: no binding
[7]
  binding result: binds
[3]; IFN-gamma treated U3A
  binding result: binds
[8]
  binding result: binds
[4]; [12]
  binding result: no binding
[10]
  binding result: no binding

## GTTGTTCCGGGAAAATT (double strand) [S1 (Stat1 selected consensus)]
[1]; HepG2 IL-6, lower overall affinity than M67
  binding result: binds
[2]; HepG2 extract, lower affinity than M67, site selected by Stat1 from random pool
  binding result: binds
[4]; HepG2 IL-6, lower overall affinity than M67, 3-5 fold weaker than S3 by competition
  binding result: binds

## TATTTCCGGGAAATCCC (double strand) [S3 (Stat3 selected consensus)]
[1]; partly obscured by comigrating constitutive protein
  binding result: binds
[2]; HepG2 IL-6
  binding result: binds
[11]
  binding result: binds

## TTCCCCGAA (double strand) [IRF-1 GAS (only core printed)]
[3]; IFN-gamma treated U3A, supershifted by anti-Stat1C
  binding result: binds
[5]
  binding result: binds
